Results are given in words; binding and its absence hold for the method and conditions named. In cells and extracts the contact can be indirect. Some binding calls cover weakened binding; strength is not graded here.
Biological target: T1, Mic60 (as used in the co-IP with TFB1M) (human) (UniProt Q16891)
T1 sequence: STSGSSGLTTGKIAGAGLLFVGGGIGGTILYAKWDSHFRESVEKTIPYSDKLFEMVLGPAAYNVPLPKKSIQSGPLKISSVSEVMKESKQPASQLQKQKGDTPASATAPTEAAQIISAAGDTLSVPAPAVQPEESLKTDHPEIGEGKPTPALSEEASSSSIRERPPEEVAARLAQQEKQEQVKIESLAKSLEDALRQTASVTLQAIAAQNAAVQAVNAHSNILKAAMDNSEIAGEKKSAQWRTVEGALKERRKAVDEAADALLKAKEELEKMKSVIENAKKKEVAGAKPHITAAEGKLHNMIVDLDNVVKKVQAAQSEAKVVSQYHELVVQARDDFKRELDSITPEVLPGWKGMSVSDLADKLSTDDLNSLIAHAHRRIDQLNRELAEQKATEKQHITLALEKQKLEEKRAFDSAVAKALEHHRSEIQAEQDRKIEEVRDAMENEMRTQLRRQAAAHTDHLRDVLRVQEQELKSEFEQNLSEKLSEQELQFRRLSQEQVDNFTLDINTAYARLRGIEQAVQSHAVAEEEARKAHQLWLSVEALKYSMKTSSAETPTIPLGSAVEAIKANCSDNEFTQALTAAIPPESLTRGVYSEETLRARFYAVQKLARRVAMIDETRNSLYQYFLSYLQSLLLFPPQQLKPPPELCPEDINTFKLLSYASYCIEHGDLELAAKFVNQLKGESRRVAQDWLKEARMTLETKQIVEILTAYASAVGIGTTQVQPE
Assay: co-IP; co-IP of Mic60 and TFB1M shown in Supplementary figure S1; constructs and cells not told in the main text

Protein sequences, listed by entry. Tags and fused reporters are not part of them. Residues count along the entry.
UniProt Q8WVM0, residues 28-346: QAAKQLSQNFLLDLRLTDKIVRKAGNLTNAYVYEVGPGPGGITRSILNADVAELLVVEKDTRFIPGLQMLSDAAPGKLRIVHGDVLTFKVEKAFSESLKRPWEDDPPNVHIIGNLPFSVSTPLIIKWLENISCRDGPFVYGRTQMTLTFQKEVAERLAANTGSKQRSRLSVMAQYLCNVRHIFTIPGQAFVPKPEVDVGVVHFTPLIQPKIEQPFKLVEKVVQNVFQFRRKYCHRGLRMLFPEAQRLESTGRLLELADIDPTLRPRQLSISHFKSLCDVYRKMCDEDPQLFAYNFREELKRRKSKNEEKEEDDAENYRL

For TFB1M (from UniProt Q8WVM0 28-346), the binding was “binds”.

Source: paper PMC4303897
